{"sequences": {"note": "Chains of the proteins cited; added tags and fusions are not shown.", "UniProt Q9UQE7": "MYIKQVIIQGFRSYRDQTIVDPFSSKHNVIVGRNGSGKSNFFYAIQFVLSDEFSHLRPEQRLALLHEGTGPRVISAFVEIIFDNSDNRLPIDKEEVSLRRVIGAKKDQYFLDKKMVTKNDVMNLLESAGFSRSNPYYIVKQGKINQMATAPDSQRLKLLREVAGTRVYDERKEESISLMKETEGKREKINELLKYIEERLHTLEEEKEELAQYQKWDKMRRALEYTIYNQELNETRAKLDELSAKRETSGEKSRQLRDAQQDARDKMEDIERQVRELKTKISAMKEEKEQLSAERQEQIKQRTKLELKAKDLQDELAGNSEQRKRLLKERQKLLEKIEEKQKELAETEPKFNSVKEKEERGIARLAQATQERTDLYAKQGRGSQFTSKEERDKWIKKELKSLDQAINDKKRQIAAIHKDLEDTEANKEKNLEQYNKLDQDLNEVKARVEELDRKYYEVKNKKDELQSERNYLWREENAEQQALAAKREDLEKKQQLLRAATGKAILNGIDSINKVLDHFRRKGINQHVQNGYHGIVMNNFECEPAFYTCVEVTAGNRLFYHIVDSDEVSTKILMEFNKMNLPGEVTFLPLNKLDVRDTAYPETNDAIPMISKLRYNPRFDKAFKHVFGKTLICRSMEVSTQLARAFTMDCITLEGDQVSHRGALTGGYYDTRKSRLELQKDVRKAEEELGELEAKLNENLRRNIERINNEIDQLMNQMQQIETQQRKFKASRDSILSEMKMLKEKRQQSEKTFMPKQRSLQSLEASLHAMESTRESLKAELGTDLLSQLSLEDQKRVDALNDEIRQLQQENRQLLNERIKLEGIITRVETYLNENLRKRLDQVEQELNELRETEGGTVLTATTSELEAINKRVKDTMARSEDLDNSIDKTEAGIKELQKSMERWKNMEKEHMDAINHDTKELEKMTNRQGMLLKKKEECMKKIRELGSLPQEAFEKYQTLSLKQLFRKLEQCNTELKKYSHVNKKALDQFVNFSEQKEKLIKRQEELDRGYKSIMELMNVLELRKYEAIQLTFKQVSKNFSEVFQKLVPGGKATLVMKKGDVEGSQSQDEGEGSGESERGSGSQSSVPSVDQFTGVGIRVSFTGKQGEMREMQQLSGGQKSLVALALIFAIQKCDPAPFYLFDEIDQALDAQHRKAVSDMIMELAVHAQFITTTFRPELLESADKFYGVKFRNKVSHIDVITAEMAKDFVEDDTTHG", "UniProt Q4G0F5": "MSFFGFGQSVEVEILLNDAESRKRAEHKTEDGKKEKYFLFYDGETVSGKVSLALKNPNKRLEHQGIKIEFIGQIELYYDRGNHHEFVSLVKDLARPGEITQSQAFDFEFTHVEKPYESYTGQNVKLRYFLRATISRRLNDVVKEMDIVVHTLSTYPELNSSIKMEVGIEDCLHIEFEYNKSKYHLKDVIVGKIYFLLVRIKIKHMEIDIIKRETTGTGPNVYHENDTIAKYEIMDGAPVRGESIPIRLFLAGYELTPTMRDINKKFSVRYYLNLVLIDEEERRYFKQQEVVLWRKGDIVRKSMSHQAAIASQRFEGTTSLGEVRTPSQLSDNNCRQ"}, "source": "paper doi:10.1101/2024.05.06.592854", "assay_in_all_cases": "co-IP", "key": {"[1]": {"target": "T1, 3xFLAG-NEK1 (NIMA-related kinase 1), expressed in human motor neurons (hsyn-3XFLAG-NEK1 lentivirus) (human) (UniProt Q96PY6)", "T1 sequence": "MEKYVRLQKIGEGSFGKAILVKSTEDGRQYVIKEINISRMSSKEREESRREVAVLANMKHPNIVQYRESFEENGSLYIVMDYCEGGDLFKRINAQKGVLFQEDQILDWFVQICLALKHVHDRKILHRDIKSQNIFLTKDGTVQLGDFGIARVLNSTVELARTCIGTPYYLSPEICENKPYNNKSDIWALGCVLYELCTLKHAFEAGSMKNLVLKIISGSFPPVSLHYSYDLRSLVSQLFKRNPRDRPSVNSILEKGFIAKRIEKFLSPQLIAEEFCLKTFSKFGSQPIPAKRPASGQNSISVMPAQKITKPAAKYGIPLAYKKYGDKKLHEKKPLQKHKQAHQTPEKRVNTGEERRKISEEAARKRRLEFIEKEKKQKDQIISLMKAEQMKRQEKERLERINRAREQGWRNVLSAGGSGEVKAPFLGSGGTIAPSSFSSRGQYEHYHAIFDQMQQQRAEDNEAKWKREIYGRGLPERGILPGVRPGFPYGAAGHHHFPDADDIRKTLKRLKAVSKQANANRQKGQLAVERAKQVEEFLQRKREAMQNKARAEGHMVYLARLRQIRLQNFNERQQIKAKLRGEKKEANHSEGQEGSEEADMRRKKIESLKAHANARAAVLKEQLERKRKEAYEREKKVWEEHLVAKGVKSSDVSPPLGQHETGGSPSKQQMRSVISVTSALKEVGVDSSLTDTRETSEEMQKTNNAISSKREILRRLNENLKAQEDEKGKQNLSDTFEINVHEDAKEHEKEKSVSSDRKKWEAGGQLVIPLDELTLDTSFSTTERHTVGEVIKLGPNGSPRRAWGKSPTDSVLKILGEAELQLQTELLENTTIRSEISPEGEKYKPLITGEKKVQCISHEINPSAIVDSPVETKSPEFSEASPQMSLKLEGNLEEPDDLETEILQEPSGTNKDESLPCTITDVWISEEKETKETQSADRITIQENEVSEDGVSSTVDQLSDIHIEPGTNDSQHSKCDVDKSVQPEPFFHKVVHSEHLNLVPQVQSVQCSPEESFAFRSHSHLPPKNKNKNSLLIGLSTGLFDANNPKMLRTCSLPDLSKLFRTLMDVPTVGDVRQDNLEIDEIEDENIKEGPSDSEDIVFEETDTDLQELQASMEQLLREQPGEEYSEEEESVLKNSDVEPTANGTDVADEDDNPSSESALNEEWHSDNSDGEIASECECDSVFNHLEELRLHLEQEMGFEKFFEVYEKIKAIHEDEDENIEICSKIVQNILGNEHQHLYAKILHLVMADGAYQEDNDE"}, "[2]": {"target": "T2, 3xFLAG-NEK1 (NIMA-related kinase 1), expressed in HEK cells (human) (UniProt Q96PY6)", "T2 sequence": "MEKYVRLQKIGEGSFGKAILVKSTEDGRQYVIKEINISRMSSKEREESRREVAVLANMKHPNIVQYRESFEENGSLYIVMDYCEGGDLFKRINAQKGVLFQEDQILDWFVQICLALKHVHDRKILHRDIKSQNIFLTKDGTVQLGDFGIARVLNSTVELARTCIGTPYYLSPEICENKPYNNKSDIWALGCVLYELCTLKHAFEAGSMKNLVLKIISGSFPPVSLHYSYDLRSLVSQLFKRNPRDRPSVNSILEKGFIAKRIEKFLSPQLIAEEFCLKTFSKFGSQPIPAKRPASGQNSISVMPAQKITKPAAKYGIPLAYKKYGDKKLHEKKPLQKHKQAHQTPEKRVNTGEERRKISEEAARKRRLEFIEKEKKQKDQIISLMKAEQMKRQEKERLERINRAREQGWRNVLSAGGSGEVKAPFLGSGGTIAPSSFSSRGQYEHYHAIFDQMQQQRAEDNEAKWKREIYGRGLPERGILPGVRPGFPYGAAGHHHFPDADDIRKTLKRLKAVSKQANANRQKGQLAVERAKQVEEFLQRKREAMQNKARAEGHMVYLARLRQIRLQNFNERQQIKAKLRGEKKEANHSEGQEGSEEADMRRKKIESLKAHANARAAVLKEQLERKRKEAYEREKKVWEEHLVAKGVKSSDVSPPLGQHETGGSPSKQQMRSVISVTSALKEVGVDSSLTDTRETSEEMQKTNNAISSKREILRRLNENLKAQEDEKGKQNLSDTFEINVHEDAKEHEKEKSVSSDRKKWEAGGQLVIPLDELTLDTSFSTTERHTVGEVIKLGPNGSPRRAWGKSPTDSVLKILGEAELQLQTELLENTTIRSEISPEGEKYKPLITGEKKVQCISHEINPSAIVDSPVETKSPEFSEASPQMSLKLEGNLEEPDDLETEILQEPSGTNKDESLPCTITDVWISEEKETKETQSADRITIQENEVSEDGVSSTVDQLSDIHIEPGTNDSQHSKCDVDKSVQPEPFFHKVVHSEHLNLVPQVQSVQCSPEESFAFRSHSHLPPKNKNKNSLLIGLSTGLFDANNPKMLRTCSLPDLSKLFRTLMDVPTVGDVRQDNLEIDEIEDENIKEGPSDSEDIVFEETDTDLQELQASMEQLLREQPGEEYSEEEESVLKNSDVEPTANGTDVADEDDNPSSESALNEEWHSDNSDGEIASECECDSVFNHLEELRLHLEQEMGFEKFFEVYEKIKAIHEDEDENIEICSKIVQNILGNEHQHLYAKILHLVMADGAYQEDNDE"}, "[3]": {"target": "T2, 3xFLAG-NEK1 (NIMA-related kinase 1), expressed in HEK cells (human)", "remark": "listed apart in the source"}, "[4]": {"target": "T1, 3xFLAG-NEK1 (NIMA-related kinase 1), expressed in human motor neurons (hsyn-3XFLAG-NEK1 lentivirus) (human)", "remark": "listed apart in the source"}}, "note": "Read-outs that look alike come from different tables or passages of the source. These are yes or no findings as the source states them, for the method shown. Binding seen in cells or lysates may run through a third protein. Some binding calls cover weakened binding; strength is not graded here. Tags and fused reporters may be left off the sequences shown.", "data": [{"molecule": "SMC3 (cohesin complex subunit), motor neurons (from UniProt Q9UQE7 1-1217)", "values": [{"measurement": "binding", "setting": "[1]", "value": "binds"}]}, {"molecule": "VPS26B (retromer subunit), motor neurons (from UniProt Q4G0F5 1-336)", "values": [{"measurement": "binding", "setting": "[1]", "value": "binds"}]}, {"molecule": "SMC3 (cohesin complex subunit), HEK cells (from UniProt Q9UQE7 1-1217)", "values": [{"measurement": "binding", "setting": "[2]", "value": "binds"}]}, {"molecule": "VPS26B (retromer subunit), HEK cells (from UniProt Q4G0F5 1-336)", "values": [{"measurement": "binding", "setting": "[2]", "value": "binds"}]}, {"molecule": "WASHC4 (WASH complex component), HEK cells (protein, UniProt Q2M389 1-1173) MAVETLSPDWEFDRVDDGSQKIHAEVQLKNYGKFLEEYTSQLRRIEDALDDSIGDVWDFNLDPIALKLLPYEQSSLLELIKTENKVLNKVITVYAALCCEIKKLKYEAETKFYNGLLFYGEGATDASMVEGDCQIQMGRFISFLQELSCFVTRCYEVVMNVVHQLAALYISNKIAPKIIETTGVHFQTMYEHLGELLTVLLTLDEIIDNHITLKDHWTMYKRLLKSVHHNPSKFGIQEEKLKPFEKFLLKLEGQLLDGMIFQACIEQQFDSLNGGVSVSKNSTFAEEFAHSIRSIFANVEAKLGEPSEIDQRDKYVGICGLFVLHFQIFRTIDKKFYKSLLDICKKVPAITLTANIIWFPDNFLIQKIPAAAKLLDRKSLQAIKIHRDTFLQQKAQSLTKDVQSYYVFVSSWMMKMESILSKEQRMDKFAEDLTNRCNVFIQGFLYAYSISTIIKTTMNLYMSMQKPMTKTSVKALCRLVELLKAIEHMFYRRSMVVADSVSHITQHLQHQALHSISVAKKRVISDKKYSEQRLDVLSALVLAENTLNGPSTKQRRLIVSLALSVGTQMKTFKDEELFPLQVVMKKLDLISELRERVQTQCDCCFLYWHRAVFPIYLDDVYENAVDAARLHYMFSALRDCVPAMMHARHLESYEILLDCYDKEIMEILNEHLLDKLCKEIEKDLRLSVHTHLKLDDRNPFKVGMKDLALFFSLNPIRFFNRFIDIRAYVTHYLDKTFYNLTTVALHDWATYSEMRNLATQRYGLVMTEAHLPSQTLEQGLDVLEIMRNIHIFVSRYLYNLNNQIFIERTSNNKHLNTINIRHIANSIRTHGTGIMNTTVNFTYQFLKKKFYIFSQFMYDEHIKSRLIKDIRFFREIKDQNDHKYPFDRAEKFNRGIRKLGVTPEGQSYLDQFRQLISQIGNAMGYVRMIRSGGLHCSSNAIRFVPDLEDIVNFEELVKEEGLAEETLKAARHLDSVLSDHTRNSAEGTEYFKMLVDVFAPEFRRPKNIHLRNFYIIVPPLTLNFVEHSISCKEKLNKKNKIGAAFTDDGFAMGVAYILKLLDQYREFDSLHWFQSVREKYLKEIRAVAKQQNVQSASQDEKLLQTMNLTQKRLDVYLQEFELLYFSLSSARIFFRADKTAAEENQEKKEKEEETKTSNGDLSDSTVSADPVVK", "values": [{"measurement": "binding", "setting": "[3]", "value": "no binding"}]}, {"molecule": "WASHC4 (WASH complex component), motor neurons (protein, UniProt Q2M389 1-1173) MAVETLSPDWEFDRVDDGSQKIHAEVQLKNYGKFLEEYTSQLRRIEDALDDSIGDVWDFNLDPIALKLLPYEQSSLLELIKTENKVLNKVITVYAALCCEIKKLKYEAETKFYNGLLFYGEGATDASMVEGDCQIQMGRFISFLQELSCFVTRCYEVVMNVVHQLAALYISNKIAPKIIETTGVHFQTMYEHLGELLTVLLTLDEIIDNHITLKDHWTMYKRLLKSVHHNPSKFGIQEEKLKPFEKFLLKLEGQLLDGMIFQACIEQQFDSLNGGVSVSKNSTFAEEFAHSIRSIFANVEAKLGEPSEIDQRDKYVGICGLFVLHFQIFRTIDKKFYKSLLDICKKVPAITLTANIIWFPDNFLIQKIPAAAKLLDRKSLQAIKIHRDTFLQQKAQSLTKDVQSYYVFVSSWMMKMESILSKEQRMDKFAEDLTNRCNVFIQGFLYAYSISTIIKTTMNLYMSMQKPMTKTSVKALCRLVELLKAIEHMFYRRSMVVADSVSHITQHLQHQALHSISVAKKRVISDKKYSEQRLDVLSALVLAENTLNGPSTKQRRLIVSLALSVGTQMKTFKDEELFPLQVVMKKLDLISELRERVQTQCDCCFLYWHRAVFPIYLDDVYENAVDAARLHYMFSALRDCVPAMMHARHLESYEILLDCYDKEIMEILNEHLLDKLCKEIEKDLRLSVHTHLKLDDRNPFKVGMKDLALFFSLNPIRFFNRFIDIRAYVTHYLDKTFYNLTTVALHDWATYSEMRNLATQRYGLVMTEAHLPSQTLEQGLDVLEIMRNIHIFVSRYLYNLNNQIFIERTSNNKHLNTINIRHIANSIRTHGTGIMNTTVNFTYQFLKKKFYIFSQFMYDEHIKSRLIKDIRFFREIKDQNDHKYPFDRAEKFNRGIRKLGVTPEGQSYLDQFRQLISQIGNAMGYVRMIRSGGLHCSSNAIRFVPDLEDIVNFEELVKEEGLAEETLKAARHLDSVLSDHTRNSAEGTEYFKMLVDVFAPEFRRPKNIHLRNFYIIVPPLTLNFVEHSISCKEKLNKKNKIGAAFTDDGFAMGVAYILKLLDQYREFDSLHWFQSVREKYLKEIRAVAKQQNVQSASQDEKLLQTMNLTQKRLDVYLQEFELLYFSLSSARIFFRADKTAAEENQEKKEKEEETKTSNGDLSDSTVSADPVVK", "values": [{"measurement": "binding", "setting": "[4]", "value": "no binding"}]}]}
